Assay [1] has as its target GFP-tagged TSAd N-term (1-205) R120K (human) (UniProt Q9NP31). Description: co-IP.
In assay [2] the target is GFP-tagged full-length human TSAd R120K (human) (UniProt Q9NP31). The assay is described as follows: co-IP.

Results are given in words; binding and its absence hold for the method and conditions named. In cells and extracts the contact can be indirect. Some entries that bind do so weakly or less than the wild type. Tags and fused reporters may be left off the sequences shown.

These results are taken from publication doi:10.1101/2025.02.11.636929.

B1: VAV1 (endogenous, Jurkat TAg) (protein, UniProt P15498 1-845)
chain: MELWRQCTHWLIQCRVLPPSHRVTWDGAQVCELAQALRDGVLLCQLLNNLLPHAINLREVNLRPQMSQFLCLKNIRTFLSTCCEKFGLKRSELFEAFDLFDVQDFGKVIYTLSALSWTPIAQNRGIMPFPTEEESVGDEDIYSGLSDQIDDTVEEDEDLYDCVENEEAEGDEIYEDLMRSEPVSMPPKMTEYDKRCCCLREIQQTEEKYTDTLGSIQQHFLKPLQRFLKPQDIEIIFINIEDLLRVHTHFLKEMKEALGTPGAANLYQVFIKYKERFLVYGRYCSQVESASKHLDRVAAAREDVQMKLEECSQRANNGRFTLRDLLMVPMQRVLKYHLLLQELVKHTQEAMEKENLRLALDAMRDLAQCVNEVKRDNETLRQITNFQLSIENLDQSLAHYGRPKIDGELKITSVERRSKMDRYAFLLDKALLICKRRGDSYDLKDFVNLHSFQVRDDSSGDRDNKKWSHMFLLIEDQGAQGYELFFKTRELKKKWMEQFEMAISNIYPENATANGHDFQMFSFEETTSCKACQMLLRGTFYQGYRCHRCRASAHKECLGRVPPCGRHGQDFPGTMKKDKLHRRAQDKKRNELGLPKMEVFQEYYGLPPPPGAIGPFLRLNPGDIVELTKAEAEQNWWEGRNTSTNEIGWFPCNRVKPYVHGPPQDLSVHLWYAGPMERAGAESILANRSDGTFLVRQRVKDAAEFAISIKYNVEVKHIKIMTAEGLYRITEKKAFRGLTELVEFYQQNSLKDCFKSLDTTLQFPFKEPEKRTISRPAVGSTKYFGTAKARYDFCARDRSELSLKEGDIIKILNKKGQQGWWRGEIYGRVGWFPANYVEEDYSEYC
As for B1, the binding result in assay [1] and in assay [2] was “binds” each time.

B2: DOK2 (endogenous, Jurkat TAg) (protein, UniProt O60496 1-412)
chain: MGDGAVKQGFLYLQQQQTFGKKWRRFGASLYGGSDCALARLELQEGPEKPRRCEAARKVIRLSDCLRVAEAGGEASSPRDTSAFFLETKERLYLLAAPAAERGDWVQAICLLAFPGQRKELSGPEGKQSRPCMEENELYSSAVTVGPHKEFAVTMRPTEASERCHLRGSYTLRAGESALELWGGPEPGTQLYDWPYRFLRRFGRDKVTFSFEAGRRCVSGEGNFEFETRQGNEIFLALEEAISAQKNAAPATPQPQPATIPASLPRPDSPYSRPHDSLPPPSPTTPVPAPRPRGQEGEYAVPFDAVARSLGKNFRGILAVPPQLLADPLYDSIEETLPPRPDHIYDEPEGVAALSLYDSPQEPRGEAWRRQATADRDPAGLQHVQPAGQDFSASGWQPGTEYDNVVLKKGPK
In the case of B2, the binding result in assay [1] and in assay [2] was “no binding” throughout.
